# Data reported in patent publication US20230295338A1.
# By UniProt entry, the sequences of proteins in these tests, tags left out. Where a name states a change or a piece, a line headed by the entry shows the natural chain unless it says otherwise.
# UniProt P06731: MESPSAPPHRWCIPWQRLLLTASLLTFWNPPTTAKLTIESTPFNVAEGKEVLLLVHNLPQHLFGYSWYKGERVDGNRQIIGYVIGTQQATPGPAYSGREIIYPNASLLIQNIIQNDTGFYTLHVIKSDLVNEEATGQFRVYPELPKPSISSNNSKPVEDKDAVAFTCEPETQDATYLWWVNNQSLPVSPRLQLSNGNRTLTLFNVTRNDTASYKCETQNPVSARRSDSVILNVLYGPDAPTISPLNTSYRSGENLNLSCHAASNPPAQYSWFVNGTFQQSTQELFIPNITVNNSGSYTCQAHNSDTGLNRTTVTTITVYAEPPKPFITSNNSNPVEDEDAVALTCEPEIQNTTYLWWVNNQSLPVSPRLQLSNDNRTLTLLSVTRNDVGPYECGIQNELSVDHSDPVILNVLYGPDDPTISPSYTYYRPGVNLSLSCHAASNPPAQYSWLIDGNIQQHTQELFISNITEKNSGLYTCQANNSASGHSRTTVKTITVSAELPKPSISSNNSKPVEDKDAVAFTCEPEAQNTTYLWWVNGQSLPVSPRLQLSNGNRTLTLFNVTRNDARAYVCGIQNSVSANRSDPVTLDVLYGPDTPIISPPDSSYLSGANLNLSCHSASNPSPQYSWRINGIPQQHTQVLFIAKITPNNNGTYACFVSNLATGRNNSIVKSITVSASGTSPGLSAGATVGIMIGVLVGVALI
# These are yes or no findings as the source states them, for the method shown. Binding calls can cover weak binding; strength is not graded here.
# Target: human CEACAM5 (human) (UniProt P06731)
# Experiment: flow cytometry on CHO transfectants
binder,measurement,value
"CC1/3/5-Sab (antibody, V domains shown) VH: EVQLQQSGPELVKPGTSVKMSCKASGYTFTTYVMHWVQQKPGQGLDWIGFFNPYNDGTKYNEKFKGKATLTSDKSSSTAYMELSSLTSEDSAVYYCARWAYDGSYAYWGQGTTLTVSS VL: DIQMTQSSSYLSVFLGGRVTITCKASDHINNWLAWYQQKPGNAPRLLISGATSLETGVPSRFSGSGSGKDYTLSIISLQTEDVATYYCQQYWRTPFTFGSGTKLEIK",binding,binds
